Consider one molecule from publication PMC12819664.

Protein sequences, listed by entry. Tags and fused reporters are not part of them. Residues count along the entry.
UniProt O43895, residues 22-649: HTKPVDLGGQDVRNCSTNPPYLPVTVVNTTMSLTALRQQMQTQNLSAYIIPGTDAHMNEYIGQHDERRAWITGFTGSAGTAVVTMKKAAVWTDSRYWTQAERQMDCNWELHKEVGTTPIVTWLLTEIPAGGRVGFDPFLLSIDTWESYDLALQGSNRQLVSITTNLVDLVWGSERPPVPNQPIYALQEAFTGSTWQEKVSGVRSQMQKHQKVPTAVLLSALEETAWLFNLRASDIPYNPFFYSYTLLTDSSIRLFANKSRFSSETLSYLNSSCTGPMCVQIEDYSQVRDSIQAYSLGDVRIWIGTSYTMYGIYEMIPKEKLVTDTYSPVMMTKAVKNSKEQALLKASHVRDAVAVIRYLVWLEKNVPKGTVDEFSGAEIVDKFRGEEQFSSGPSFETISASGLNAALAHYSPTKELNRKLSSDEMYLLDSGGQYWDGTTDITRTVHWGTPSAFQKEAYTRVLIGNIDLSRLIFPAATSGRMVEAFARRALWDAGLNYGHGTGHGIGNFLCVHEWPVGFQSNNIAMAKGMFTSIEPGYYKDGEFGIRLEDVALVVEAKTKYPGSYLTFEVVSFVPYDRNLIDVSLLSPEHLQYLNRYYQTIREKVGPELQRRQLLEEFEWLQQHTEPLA

Results are given in words; binding and its absence hold for the method and conditions named. In cells and extracts the contact can be indirect. Here binding means that the protein was enriched with, or labelled near, the bait; the list need not be complete.

This test deals with HA-tagged X-prolyl aminopeptidase 2 (XPNPEP2) (UniProt O43895). The test can be described thus: affinity purification with mass spectrometry; immunoprecipitates enriched with HA-tagged XPNPEP2, analysed by liquid chromatography-tandem mass spectrometry; cells not given.

B1: SLC25A6 (protein, UniProt P12236 1-298)
chain: MTEQAISFAKDFLAGGIAAAISKTAVAPIERVKLLLQVQHASKQIAADKQYKGIVDCIVRIPKEQGVLSFWRGNLANVIRYFPTQALNFAFKDKYKQIFLGGVDKHTQFWRYFAGNLASGGAAGATSLCFVYPLDFARTRLAADVGKSGTEREFRGLGDCLVKITKSDGIRGLYQGFSVSVQGIIIYRAAYFGVYDTAKGMLPDPKNTHIVVSWMIAQTVTAVAGVVSYPFDTVRRRMMMQSGRKGADIMYTGTVDCWRKIFRDEGGKAFFKGAWSNVLRGMGGAFVLVLYDELKKVI
In the case of B1, the binding entry was “binds”.
